Data: PubChem BioAssay AID504834 (National Center for Advancing Translational Sciences (NCATS), 2011)
Screen size: about 320,000 compounds; about 22,000 (6.9%) were called active. This list was built around the results that the source calls inconclusive (neither active nor inactive); the mix of calls is not that of the screen. The call rests on the fitted dose curve; in most records, active means well fitted inhibition curve with a large enough effect; inconclusive means small, poorly fitted or top-dose-only effect, or another doubt; inactive means no such curve, though single readings can be large or run the other way. Potencies of inconclusive entries are doubtful fits and often do not repeat.
Potency means the concentration at half of the fitted maximal effect.

Assay: Primary qHTS for delayed death inhibitors of the malarial parasite plastid, 96 hour incubation
Conditions: P. falciparum luciferase reporter growth; series mostly up to 28.7 µM
In short: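 Plates of compound plus infected erythrocytes (2% hematocrit, 0.05% parasitemia final) incubate 96 hours, 37 C, 5% CO2. Detection reagent added; reduced luminescence from the parasites' luciferase reporter flags inhibition.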
In the case of O=C(Nc1ccccc1)Nc1cccc(NC(=O)Nc2ccccc2)c1F, the Potency is reported as “inactive”.
With Cc1ccc(Oc2nc3c(c(=O)n(Cc4ccccc4F)c(=O)n3C)n2C)cc1 the Potency was inconclusive: 5.22 µM [inhibitor, partial curve].
For O=C(Nc1ccc([N+](=O)[O-])cc1)C(=O)Nc1cccc(C(=O)O)c1, the Potency was “inactive”.
For Cc1cccc(N2CCN(C(=O)COc3cccc4c3OC(C)(C)C4)CC2)c1C, the Potency was inconclusive: 4.65 µM [inhibitor, partial curve, poor fit].
In the case of COc1ccc(-c2nc(C#N)c(NC(C)c3ccccc3)o2)cc1OC (stereo unspecified), the Potency is reported as inconclusive: 11.7 µM [inhibitor, partial curve, poor fit].
For COc1ccc(/C=C/C(=O)Oc2cc(O)cc(O)c2)cc1, the Potency was inconclusive: 4.15 µM [inhibitor, single point].
In the case of CCOc1ccc(C(=O)NCC(=O)N2CCCCCCC2)cc1OCC, the Potency is reported as inconclusive: 13.1 µM [inhibitor, partial curve].
In the case of COc1ccc(CC(NC(C)=O)C(=O)NC2CCN(S(=O)(=O)c3ccc(NC(C)=O)cc3)CC2)cc1 (stereo unspecified), the Potency is reported as inconclusive: 10.4 µM [inhibitor, single point].
For COc1ccc(-c2onc(C)c2-c2ccc3c(c2)OCCO3)c(O)c1, the Potency was inconclusive: 18.5 µM [inhibitor, single point].
With COc1ccccc1C(=O)NC(=O)COC(=O)CNC(=O)c1ccc(Cl)cc1Cl the Potency was “inactive”.
In the case of O=C(O)c1cccc2c1C(=O)c1ccc(-c3ccc(Cl)c(C(F)(F)F)c3)cc1S2(=O)=O, the Potency is reported as “inactive”.
With O=C(NCCN1CCOCC1)c1sc2cc(Cl)ccc2c1Cl the Potency was “inactive”.
With CC(C)CC(=O)Nc1ccnn1C1CCN(C(=O)c2ccc(Cl)cc2F)CC1 the Potency was inconclusive: 18.5 µM [inhibitor, single point].
For Cc1ccc(OCCNC(=O)c2cc(C3CC3)nc3c2cnn3C(C)C)cc1, the Potency was inconclusive: 18.5 µM [inhibitor, single point].
For COc1ccc2c(/C=C/c3cc[n+](C)cc3)c[nH]c2c1, the Potency was active: 0.522 µM.
With CCOC(=O)c1ccc(CS(=O)c2ccc(Cl)cc2)o1 (stereo unspecified) the Potency was inconclusive: 18.5 µM [inhibitor, partial curve, poor fit].
For Cc1cc(/C=N/NC(=O)CC#N)c(C)n1-c1ccc([N+](=O)[O-])cc1, the Potency was inconclusive: 18.5 µM [inhibitor, single point].
With CCOCCCNC(=O)c1cn(CC)c2ccc(S(=O)(=O)N3CCC(C)CC3)cc2c1=O the Potency was inconclusive: 10.4 µM [inhibitor, single point].
In the case of COc1ccc(CCNC(=O)Cn2cnc3c(nnn3Cc3ccc(C)cc3)c2=O)cc1OC, the Potency is reported as inconclusive: 18.5 µM [inhibitor, single point].
With Cc1cccc(C(=O)NCc2nnc(SCC(=O)NC3CCCC3)n2C)c1 the Potency was “inactive”.
With CCc1c(C)sc2nc(C(C)C)nc(SCC(=O)N3CCc4ccccc4C3)c12 the Potency was active: 13.1 µM.
For Cc1coc2c(C)c3oc(=O)c(CCC(=O)N4CCC(C(=O)NCCCC(=O)O)(c5ccccc5)CC4)c(C)c3cc12, the Potency was active: 9.28 µM.
For Cc1ccc(C(=O)O/N=C\c2ccc(N3CCOCC3)c([N+](=O)[O-])c2)cc1, the Potency was “inactive”.
With Cc1ccc(/C(O)=C2\C(=O)C(=O)N(c3cc(C)on3)C2c2cccc(Br)c2)cc1 (stereo unspecified) the Potency was “inactive”.
With Cc1ccc(Nc2nnc(SCC(=O)Nc3ccccc3[N+](=O)[O-])s2)cc1 the Potency was active: 10.4 µM.
In the case of COc1ccc(CN2CCCC(CO)(Cc3ccc(F)cc3F)C2)cc1 (stereo unspecified), the Potency is reported as active: 10.4 µM.
With COc1cc(NC(=O)C2CC2)c(OC)cc1NC(=O)CCC(=O)NC1CCN(Cc2ccccc2)CC1 the Potency was “inactive”.
With CCOC(=O)c1c(NC(=O)CSc2nc3ccc(C)cc3[nH]2)sc2c1CC(C)(C)NC2(C)C the Potency was active: 4.65 µM.
For Cc1cc(Cl)c2oc(C(=O)N(C)CCc3cnn(C)c3)c(C)c2c1, the Potency was active: 10.4 µM.
With CCOc1ccc(C(Nc2cccnc2)c2cc(Cl)c3cccnc3c2O)cc1 (stereo unspecified) the Potency was inconclusive: 4.15 µM [inhibitor, partial curve, poor fit].
In the case of O=C(Nc1ccc([N+](=O)[O-])cc1)C1(c2ccccc2)CCOCC1, the Potency is reported as inconclusive: 10.4 µM [inhibitor, partial curve].
In the case of CN(C)/C=N/C(=S)Nc1cc(Cl)cc(Cl)c1, the Potency is reported as inconclusive: 4.15 µM [inhibitor, single point].
With O=[N+]([O-])c1ccccc1S(=O)(=O)NC1CCCCCCC1 the Potency was inconclusive: 2.62 µM [inhibitor, full curve].
With c1ccc(-c2cn(C[C@H]3CC[C@@H]([C@@H]4CC[C@H](Cn5cc(-c6ccccn6)nn5)O4)O3)nn2)nc1 the Potency was inconclusive: 18.5 µM [inhibitor, single point].
In the case of COC(=O)C1=C(c2cccc(OCc3ccccc3)c2)C[C@@H]2CC[C@H]1N2C(=O)NCc1cccc(F)c1, the Potency is reported as inconclusive: 4.15 µM [inhibitor, full curve].
For CNc1ccc(NC(C)=O)cc1[N+](=O)[O-], the Potency was inconclusive: 11.7 µM [inhibitor, single point].
With CCOc1nc(-c2ccccc2Cl)ccc1C#N the Potency was “inactive”.
In the case of CCc1nnc(NC(=O)C2CCCN2S(=O)(=O)c2ccc(F)cc2)s1 (stereo unspecified), the Potency is reported as inconclusive: 5.22 µM [inhibitor, partial curve, poor fit].
With COc1cccc(OCCNC(=O)CSc2ccc(C(F)(F)F)cc2[N+](=O)[O-])c1 the Potency was “inactive”.
For Nc1nc(-c2cccnc2)nc(N2CCCCC2)n1, the Potency was inconclusive: 11.7 µM [inhibitor, single point].
In the case of COCCn1c(SCC(=O)N2CCCC2)nnc1C(C)C, the Potency is reported as active: 5.22 µM.
For Cc1ccc(-c2nnc(SCC(=O)N3CC(C)CC(C)C3)o2)cc1C (stereo unspecified), the Potency was inconclusive: 20.8 µM [inhibitor, partial curve, poor fit].
With N#CC1CC(c2ccccc2)Nc2cc(Cl)ccc2N1 (stereo unspecified) the Potency was inconclusive: 18.5 µM [inhibitor, partial curve, poor fit].
In the case of Cc1cccc(OP(N)(=O)Oc2cccc(C)c2)c1, the Potency is reported as inconclusive: 1.17 µM [inhibitor, partial curve, poor fit].
For C=CC(C)C(C(=O)c1ccccc1)N(C)C (stereo unspecified), the Potency was inconclusive: 18.5 µM [inhibitor, single point].
With CC(NC(=O)c1ccc(Br)cc1Br)c1ccccc1 (stereo unspecified) the Potency was inconclusive: 1.17 µM [inhibitor, partial curve, poor fit].
For O=C(NCC1CCCO1)c1nc2c(nnn2Cc2ccc(F)cc2)c(=O)[nH]1 (stereo unspecified), the Potency was inconclusive: 11.7 µM [inhibitor, single point].
In the case of COc1ccc(CNC(=O)CCc2c(C)nc3ncnn3c2C)cc1, the Potency is reported as inconclusive: 18.5 µM [inhibitor, single point].
For Cc1oc2ccc(NS(=O)(=O)c3cccc4cccnc34)cc2c1C(=O)OC(C)C, the Potency was “inactive”.
With O=C(Nc1ccccc1N1CCOCC1)c1ccc([N+](=O)[O-])o1 the Potency was “inactive”.
In the case of c1nc(N2CCCCCC2)c2[nH]cnc2n1, the Potency is reported as inconclusive: 16.5 µM [inhibitor, single point].
With COc1ccc(CN([C@H](C)CO)S(=O)(=O)N(Cc2ccccc2)[C@H](CO)C(C)C)cc1 the Potency was inconclusive: 3.7 µM [inhibitor, partial curve].
With COc1ccc(NC(=O)Cn2cc(C(=O)c3ccncc3)c(=O)c3cc(C)ccc32)cc1Cl the Potency was inconclusive: 2.62 µM [inhibitor, partial curve, poor fit].
In the case of N/C(=N\N=C/c1ccc(-c2ccc(O)c(C(=O)O)c2)o1)N[N+](=O)[O-], the Potency is reported as “inactive”.
With Cc1ccc(NC(=O)Cn2nnc(C(=O)NCc3ccc(Cl)cc3)c2N)cc1F the Potency was “inactive”.
With O=C(c1ccc2[nH]c(=O)c(=O)[nH]c2c1)N1CCc2ccccc2C1 the Potency was “inactive”.
In the case of Cc1cccc2c1N(N=O)CCC2, the Potency is reported as “inactive”.
For Cc1cc(NC(=O)C(C)C)n(-c2nc3ccccc3s2)n1, the Potency was “inactive”.
For Cc1ccnc(NC(=O)CCCOc2cc(=O)n(C)c3ccccc23)c1, the Potency was “inactive”.
In the case of CC(C)(CNC(=O)c1cccs1)CNC(=O)c1cccs1, the Potency is reported as inconclusive: 18.5 µM [inhibitor, single point].
With Cc1cc(S(=O)(=O)N2CCN(Cc3ccc4c(c3)OCO4)CC2)cc(C)c1N1CCCC1=O the Potency was inconclusive: 14.7 µM [inhibitor, partial curve, poor fit].
In the case of CN(C)CCCN(Cc1ccccc1)C(=S)Nc1cccc(C(F)(F)F)c1, the Potency is reported as inconclusive: 18.5 µM [inhibitor, single point].
For CCc1ccc(S(=O)(=O)NCCc2csc(C)n2)s1, the Potency was inconclusive: 2.94 µM [inhibitor, single point].
For CCOc1ccccc1CNCCOC, the Potency was “inactive”.
For CSCC(C)N1CCC(CO)(CCCc2ccccc2)CC1 (stereo unspecified), the Potency was inconclusive: 1.47 µM [inhibitor, partial curve].
For O=C(N/N=C\C=C\c1ccc2c(c1)OCO2)c1cccnc1, the Potency was inconclusive: 3.7 µM [inhibitor, partial curve, poor fit].
In the case of O=C(CSc1nnc(CNC(=O)c2c(F)cccc2Cl)o1)c1ccccc1, the Potency is reported as active: 9.28 µM.
In the case of O=c1[nH]c(C2CCN(S(=O)(=O)c3ccccc3)CC2)nc2c1nnn2Cc1ccccc1, the Potency is reported as “inactive”.
For CCOC(=O)N1CCN(C(c2ccc(C(C)C)cc2)c2sc3nc(C)nn3c2O)CC1 (stereo unspecified), the Potency was inconclusive: 4.65 µM [inhibitor, partial curve].
With N#Cc1ccc(C(=O)NCC(c2ccco2)N2CCCCC2)cc1 (stereo unspecified) the Potency was active: 10.4 µM.
In the case of COc1cccc(NC(=O)c2cc(-c3ccncc3)nc3c(C)cc(C)cc23)c1, the Potency is reported as inconclusive: 10.4 µM [inhibitor, single point].
